Measured values as given in the supplement of paper PMC3334620.
The full ranking holds about 33,000 sequences; the median of “E-score (-0.5 to 0.5)” is about -0.015, and the highest 2% start at about 0.3. This is one part of the list.

target: T1, Abf1 (UniProt P14164); test: PBM E-score (8-mer binding enrichment) (E-score (-0.5 to 0.5)); higher = stronger / more preferred TF binding; details: protein concentration: 200 nM; construct: GST-full length
T1 sequence: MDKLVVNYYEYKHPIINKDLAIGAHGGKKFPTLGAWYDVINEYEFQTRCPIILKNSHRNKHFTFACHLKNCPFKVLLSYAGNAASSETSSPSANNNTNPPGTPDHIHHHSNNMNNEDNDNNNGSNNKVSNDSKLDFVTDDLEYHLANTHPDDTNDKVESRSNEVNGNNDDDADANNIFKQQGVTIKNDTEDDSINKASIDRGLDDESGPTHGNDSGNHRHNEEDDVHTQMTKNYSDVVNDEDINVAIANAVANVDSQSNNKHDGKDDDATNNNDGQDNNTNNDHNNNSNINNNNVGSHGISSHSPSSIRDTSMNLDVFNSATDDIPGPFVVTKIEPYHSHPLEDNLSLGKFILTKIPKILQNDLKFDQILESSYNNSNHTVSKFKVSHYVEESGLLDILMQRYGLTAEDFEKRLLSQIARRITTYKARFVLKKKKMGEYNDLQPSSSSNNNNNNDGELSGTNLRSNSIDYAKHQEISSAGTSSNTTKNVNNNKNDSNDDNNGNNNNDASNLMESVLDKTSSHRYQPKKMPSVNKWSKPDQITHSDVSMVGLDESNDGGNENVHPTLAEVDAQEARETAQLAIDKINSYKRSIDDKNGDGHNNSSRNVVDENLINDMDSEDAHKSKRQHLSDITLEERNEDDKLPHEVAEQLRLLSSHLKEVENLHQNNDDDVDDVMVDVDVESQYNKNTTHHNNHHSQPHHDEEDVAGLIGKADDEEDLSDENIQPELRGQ
Outline: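 Universal all-10-mer Agilent arrays, double-stranded by primer extension on fresh or once-stripped slides, were probed with about 100-200 nM GST-tagged yeast transcription factors made by PURExpress. Fluorescent anti-GST detected bound protein, and masliner normalised the scans. E-scores from the Universal PBM Analysis Suite were given to each ungapped eight-base word pooled with its reverse complement.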

Sequence	PBM E-score
TAGGCGAA	0.0221
AATGACAA	0.397
GCGGTCAC	0.128
AGGTCACA	-0.0336
AACAACGA	0.0389
CAGGGCGG	-0.192
AAATCACT	0.374
ACGCTCCT	-0.0391
CTGTCTCC	-0.079
TACAGGTA	0.00115
ATGCCATG	0.159
CATCGCGG	-0.0312
AGCGCATC	0.00029
TGCTGAAA	-0.101
AGGAATAT	0.111
GGCGCCCC	-0.281
CGAGACGA	0.0484
ATTAGGCA	0.114
GCTTGCAC	-0.177
CCTATCAC	0.219
AAACCGGC	-0.0715
AGTGCACT	-0.0398

Sequence	PBM E-score
GGGAGAAA	-0.195
GTGTATTA	0.195
CAGGTTGC	-0.143
GGCCACCC	-0.19
CCGGCTAG	-0.297
GACCTATA	0.193
AGGCTGCA	-0.0891
ACTGAACT	-0.184
AACCCTCA	-0.0559
GCGCTAGC	0.0309
AGCGGCCG	0.141
CGGCTTCC	-0.135
GGCCGACA	-0.088
GGACAGCC	-0.0366
CGCAGCCC	-0.149
GCAAGACC	-0.132
CCTTCGGC	-0.283
ATCTGGAG	-0.0646
TAGGTTGA	-0.00555
CCGTGTGC	-0.0501
ATCAATCA	0.182
CGGCTGAA	-0.128

Sequence	PBM E-score
CACATTGG	-0.0823
TCCTTACA	-0.137
CGTCCTAC	-0.0375
AGACCAGG	-0.244
ATAGTAAT	0.132
AGTTACAA	0.0157
ATCTGGAA	-0.0292
CCGTACAC	0.3
CAAGGGGG	-0.28
AAGTGTGA	0.0268
GCCACGCA	-0.141
ACACTAAG	0.033
TCTATGCA	-0.0315
ATGACGTG	0.237
GACCACGA	0.123
ACGAAGCC	0.191
CTGTACCA	0.0163
AATGCTGC	-0.164
CACGCGTA	0.103
GCAGTGAC	0.15
GGCATTCA	-0.0387
GGAAAAAC	-0.133

Another view of some results above.
Sequence | PBM E-score
CACATTGG | -0.0823
TCCTTACA | -0.137
CGTCCTAC | -0.0375
AGACCAGG | -0.244
ATAGTAAT | 0.132
AGTTACAA | 0.0157
CCGTACAC | 0.3
CAAGGGGG | -0.28
AAGTGTGA | 0.0268
GCCACGCA | -0.141
TCTATGCA | -0.0315
ATGACGTG | 0.237
GACCACGA | 0.123
CTGTACCA | 0.0163
AATGCTGC | -0.164
CACGCGTA | 0.103
GCAGTGAC | 0.15

(listing goes on)

Sequence	PBM E-score
GTGCTAGA	-0.0999
AGCGCAAA	-0.0454
AACTAGAT	0.0149
GACGGCGC	0.152
CCCATACC	-0.254
GAACATCC	0.0556
CCCAGAAG	-0.101
CAACCAGA	0.0644
AGCCTTGG	-0.0139
AAGTGTCC	-0.134
AGAATACT	-0.0778
AACTAGTA	0.0186
ATGTATGA	0.194
GCACTCTA	0.0443
CCCATTGA	-0.0747
GCCATCAC	-0.121
AACGAGTT	0.00207
CAACTAAA	-0.0959
CAAGTAAC	0.107
CGAGGCTA	-0.0925
